Tests used:
Type in all cases: cell-based
KB cells = assay: MTS cytotoxicity test with KB cells; conditions: Homo sapiens, read-out: IC50 (nM) KB
Text: (§1) Human cancer cell lines, unless otherwise noted, are obtained from the American Type Culture Collection (Rockville, Md.). […]
(§2) The assay, which is sold in kit form by Promega (Madison, Wis.; CellTiter 96 AQueous Non-Radioactive Cell Proliferation Assay), is based on the conversion by viable cells, but not by dead cells, of the tetrazolium salt, MTS (3-(4,5-dimethylthiazol-2-yl)-5-(3-carboxymethoxyphenyl)-2-(4-sulphophenyl)-2H-tetrazolium, inner salt), into a water-soluble colored formazan which is detected by spectrophotometry. […] For the test procedure, cells are harvested by trypsinization, washed, counted and distributed to wells of 96-well flat-bottom microtiter plates at 1000 cells per well in 200 μL of medium. […]
(§3) After three days of culture with test compounds (day 5 overall), the MTS assay is done on all wells of the experimental plates. The absorbance values of the quadruplicate sample wells are averaged and divided by the average of the “time 0” values. […]

KB-8-5 cells = assay: MTS cytotoxicity test with KB-8-5 cells (moderate P-glycoprotein); conditions: Homo sapiens, read-out: IC50 (nM) KB 8.5
Text: as §1, §2, §3

KB-V1 cells = assay: MTS cytotoxicity test with KB-V1 cells (very high P-glycoprotein); conditions: Homo sapiens, KB-V1, read-out: IC50 (nM) KB VI
Text: as §1, §2, §3

HL-60 cells = assay: MTS cytotoxicity test with HL-60 cells; conditions: Homo sapiens, HL-60, read-out: IC50 (nM) HL-60
Text: as §1, §2, §3

HL-60/ADR cells = assay: MTS cytotoxicity test with HL-60/ADR cells (MRP1); conditions: Homo sapiens, HL60/ADR, read-out: IC50 (nM) HL-60/ADR
Text: as §1, §2, §3

S1 cells = assay: MTS cytotoxicity test with S1 cells; conditions: Homo sapiens, read-out: IC50 (nM) S1
Text: as §1, §2, §3

S1-M1 cells = assay: MTS cytotoxicity test with S1-M1 cells (MXR); conditions: Homo sapiens, read-out: IC50 (nM) S1-M1
Text: as §1, §2, §3

COc1cc2c(c(OC)c1OC)-c1ccc(OC)c(=O)cc1[C@@H](NC(C)=O)CC2 [Colchicine, reference compound]
IC50 (KB cells): 13 nM | IC50 (KB-8-5 cells): 61 nM | IC50 (KB-V1 cells): 1200 nM | IC50 (HL-60 cells): 21 nM | IC50 (HL-60/ADR cells): 182 nM | IC50 (S1 cells): 37 nM | IC50 (S1-M1 cells): 109 nM
